Assay results from PubChem BioAssay (EPA / NIEHS).
Where “and” joins values, the source holds several entries; their conditions need not be identical. Identical values can stand only once. Inconclusive means that the source gave no clear call. Such entries were picked first, then a sample of the others. Potencies beside an inconclusive call are fits to weak or partial responses and may not hold up. Calls of active or inactive are those of the source. The calls were made as follows: active = hit-call score of the fitted dose curve at least 0.9, where 1 is the maximum; inconclusive = response in the unintended direction; inactive = score below 0.9.

Amino acid sequences for entries named in this document (tags omitted). A change or cut given only in a name is not applied to a line headed by its entry.
UniProt P22199: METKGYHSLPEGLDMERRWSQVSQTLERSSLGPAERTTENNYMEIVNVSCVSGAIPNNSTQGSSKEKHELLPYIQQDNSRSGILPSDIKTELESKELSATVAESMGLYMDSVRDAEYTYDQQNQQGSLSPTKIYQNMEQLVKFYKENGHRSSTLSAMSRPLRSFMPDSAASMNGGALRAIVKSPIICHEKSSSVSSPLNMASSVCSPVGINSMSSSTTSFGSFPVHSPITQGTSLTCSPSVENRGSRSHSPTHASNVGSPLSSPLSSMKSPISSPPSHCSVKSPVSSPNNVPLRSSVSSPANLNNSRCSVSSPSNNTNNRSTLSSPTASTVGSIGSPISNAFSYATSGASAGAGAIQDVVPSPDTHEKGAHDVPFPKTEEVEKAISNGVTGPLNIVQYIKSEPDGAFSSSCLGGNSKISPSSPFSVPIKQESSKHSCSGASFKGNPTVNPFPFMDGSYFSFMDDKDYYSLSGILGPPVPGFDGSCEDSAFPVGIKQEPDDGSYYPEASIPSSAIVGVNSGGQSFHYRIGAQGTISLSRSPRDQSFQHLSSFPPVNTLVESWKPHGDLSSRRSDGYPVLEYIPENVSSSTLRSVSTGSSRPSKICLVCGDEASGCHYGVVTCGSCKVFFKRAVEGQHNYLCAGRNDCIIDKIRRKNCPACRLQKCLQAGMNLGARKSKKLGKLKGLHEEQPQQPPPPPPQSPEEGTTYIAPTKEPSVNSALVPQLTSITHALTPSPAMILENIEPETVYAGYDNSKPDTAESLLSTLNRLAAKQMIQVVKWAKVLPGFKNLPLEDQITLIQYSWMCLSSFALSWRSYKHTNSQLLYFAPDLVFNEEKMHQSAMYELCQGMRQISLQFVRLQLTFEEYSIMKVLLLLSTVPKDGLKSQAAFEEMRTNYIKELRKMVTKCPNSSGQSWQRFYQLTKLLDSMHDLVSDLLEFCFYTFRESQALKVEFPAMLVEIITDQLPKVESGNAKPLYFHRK

These molecules were tested against rat Mineralocorticoid Receptor (MR), Nr3c2 (gene 25672) (UniProt P22199) (assay: NVS_NR_rMR: NovaScreen (NVS) Nuclear Receptor Binding Assay for rat Mineralocorticoid Receptor (MR) (AID 2283355)).
In short: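 Cell-free radioligand binding to mineralocorticoid receptor from adrenalectomized rat brain supernatant, scintillation counting after 24 h. Primary screen in duplicate at 25 uM; actives retested in concentration series. Loss of specific binding versus DMSO.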

Row | SMILES | AC50 | outcome
1 | COc1cnc(OC)n2nc(NS(=O)(=O)c3c(OCC(F)F)cccc3C(F)(F)F)nc12 | inconclusive: 6.78 µM | –
2 | CCC[CH2][Sn]([Cl])([CH2]CCC)[CH2]CCC | – | inactive
3 | Cc1cc(C)nc(Nc2ccccc2)n1 | inconclusive: 25 µM | –
4 | CCC(C)(C)C(=O)OC1=C(c2ccc(Cl)cc2Cl)C(=O)OC12CCCCC2 | inconclusive: 25 µM | –
5 | COc1cccc(C(=O)NN(C(=O)c2cc(C)cc(C)c2)C(C)(C)C)c1C | inconclusive: 25 µM | –
6 | COC(=O)C(C)Oc1ccc(Oc2ccc(Cl)cc2Cl)cc1 (centres undefined) | inconclusive: 25 µM | –
7 | Clc1cccc(Cl)c1 | – | inactive
8 | CCNP(=S)(OC)O/C(C)=C/C(=O)OC(C)C (centres undefined) | inconclusive: 0.00229 µM | –
9 | CC(C)N(C(=O)COc1nnc(C(F)(F)F)s1)c1ccc(F)cc1 | inconclusive: 25 µM | –
10 | CSC(C)(C)C=NO | active: 4.44 µM | –
11 | Oc1cc(Cl)ccc1Oc1ccc(Cl)cc1Cl | – | inactive
12 | C[C@]12C=CC3=C4CCC(=O)C=C4CC[C@H]3[C@@H]1CC[C@@H]2O | active: 69.1 nM and active: 245 nM | –
13 | CNC(=O)Oc1ccccc1OC(C)C | inconclusive: 25 µM | –
14 | CCc1cccc(CC)c1N(COC)C(=O)CCl | inconclusive: 25 µM | –
15 | CC#Cc1cc(C)nc(Nc2ccccc2)n1 | – | inactive
16 | Oc1ccc(C(c2ccc(O)cc2)(C(F)(F)F)C(F)(F)F)cc1 | active: 16.9 µM | –
17 | O=c1oc2ccccc2c(O)c1C(CC(O)c1ccc(-c2ccc(Br)cc2)cc1)c1ccccc1 (centres undefined) | – | inactive
18 | Cc1ccc(O)c(C)c1 | inconclusive: 25.9 µM | –
19 | CCC(C)(c1ccc(O)cc1)c1ccc(O)cc1 | – | inactive
